This is one part of the list. Values are raw readings; no control value is given beside them.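 In the initial screen, polymyxin B was used at a concentration that permeabilizes Salmonella's outer membrane but not its inner membrane. Maximum growth was set by DMSO wells with or without polymyxin B. Since plates varied, data were ranked per plate, and compounds giving the lowest OD600 advanced as hits.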
System: Salmonella enterica serovar Typhimurium SL1344
Test: bacterial growth OD600 after 18 h with compound and polymyxin B; higher = more bacterial growth (less inhibition)
Settings: 50 µM, Mueller-Hinton broth

Compound	bacterial growth OD600 (polymyxin B 0.75 µg/mL)	bacterial growth OD600 (polymyxin B 1 µg/mL)
COc1ccc(CN2Cc3cc(C)ccc3OC(c3ccsc3)C2)cc1O (stereo not given)	0.018	–
CCCCn1c(CN2CCCC2)cnc1S(=O)(=O)CCCC(C)C	0.542	–
COC(=O)c1ccc(-c2noc(CN3CCN(Cc4ccc(OC)cc4)C(=O)C3)n2)cc1	–	0.888
CC(C)NCC1(O)CCCN(Cc2cccc(F)c2F)C1=O (stereo not given)	1.01	–
CN(Cc1nc(Cc2ccccc2Cl)no1)Cc1cccc2cnccc12	–	0.947
COC(C(=O)N1CCc2c(cnc(C)c2CNC(=O)c2ccccc2SC)C1)c1ccccc1 (stereo not given)	0.815	–
Cc1oc(-c2ccccc2NC(=O)CC2CCCC2)nc1CNC(=O)c1ccc2ccccc2n1	0.717	–
CC(C)(C)C(=O)Nc1ccnn1C1CCN(Cc2ccc(F)cc2Cl)CC1	0.621	–
COc1cccc(-c2ccccc2NC(=O)C2CCN(Cc3ccc(F)cc3)CC2)c1	–	0.028
Cc1ccn(CCC(=O)N2CCc3c(cnc(C)c3CNC(=O)/C=C/c3cccs3)C2)n1	0.846	–
O=C1CCC(CCC(=O)N2CCCC2c2ccc(F)cc2)(Cc2ccc(Cl)cc2)N1 (stereo not given)	0.948	–
O=C(c1coc(CN2CCN(c3ncccn3)CC2)n1)N1CCCCCCC1	–	1.07
CCn1ccnc1CN1CCCC(CCc2ccccc2F)C1 (stereo not given)	0.84	–
CC(=O)CCC(=O)N1CCCC(N2CCN(c3cccc(Cl)c3)CC2)C1 (stereo not given)	–	0.825
CC(C)CNCC1(O)CCCN(Cc2ccc(F)c(F)c2)C1=O (stereo not given)	–	0.98
C[C@@H]1CN(C2(C(=O)N3CC[C@H](O)C3)Cc3ccccc3C2)C[C@H](C)O1	0.756	–
Cc1cccc(C)c1C(=O)NC1CCCN(C2CCCCCC2)C1 (stereo not given)	–	1.27
CN1CCCCC1CCNC(=O)c1ccc(NCc2ccccc2)nc1 (stereo not given)	–	0.922
COc1ccc(CN2CCC(C(=O)Nc3cccc(-c4cscn4)c3)CC2)c(F)c1	0.409	–
CC(C)CS(=O)(=O)c1ncc(CN(C)C2CCCCC2)n1Cc1ccccc1	–	-0.001
CN(Cc1cn(Cc2ccccc2)nc1-c1cc2ccccc2o1)C1CCOCC1	–	0.99
COc1ccc(CC2(CCC(=O)NCCc3cccc4ccccc34)CCC(=O)N2)c(F)c1 (stereo not given)	0.805	–
CCNC(=O)N1C[C@H]2OC(=O)N(CCc3ccc(F)cc3)[C@H]2C1	–	0.954
COc1ccc(CC2(CCC(=O)NC(CCn3ccnc3)c3ccccc3)CCC(=O)N2)c(F)c1 (stereo not given)	0.831	–
Cc1cccc(-c2cnc(C)nc2C2CCCN(C(=O)C(c3cccnc3)N3CCOCC3)C2)c1 (stereo not given)	0.824	–
O=C(CCC1CCN(C(=O)C2=CCCCC2)CC1)Nc1ccccc1	–	0.844
O=C(CC1=CCCCC1)N1CCCC(N2CCN(Cc3ccc4c(c3)OCO4)CC2)C1 (stereo not given)	–	0.93
COCCO[C@H]1[C@H](NC(=O)C(C)C)c2ccccc2C12CCN(C(=O)c1cccc(C)c1C)CC2	0.965	–
COc1ccc(-c2nc(CN(C)C(C)c3nc(C)cs3)c(C)o2)cc1C (stereo not given)	0.649	–
CCOC(=O)C1CCN(C(=O)CC(c2ccccc2)c2ccc(OC)cc2)CC1 (stereo not given)	–	0.669

An excerpt from above in order of formula weight, high to low.
Compound	bacterial growth OD600 (polymyxin B 0.75 µg/mL)	bacterial growth OD600 (polymyxin B 1 µg/mL)
Cc1oc(-c2ccccc2NC(=O)CC2CCCC2)nc1CNC(=O)c1ccc2ccccc2n1	0.717	–
CN(Cc1nc(Cc2ccccc2Cl)no1)Cc1cccc2cnccc12	–	0.947
C[C@@H]1CN(C2(C(=O)N3CC[C@H](O)C3)Cc3ccccc3C2)C[C@H](C)O1	0.756	–
